PubChem BioAssay AID1508600 (Functional Genomics Laboratory (NCATS/FGL), 2020)
Screen size: about 53,000 sequences; about 3,700 (7%) were called active.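 The calls were made as follows: active = gene knockdowns whose robust z-score for IL-1 alpha signal is at least 2 or at most -2, so actives lie on both sides; inactive = the rest.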 The list shows a part of the results.

Experiment: Components of the Cytosolic LPS Sensing Pathway: Gene Identification via Genome-wide siRNA Screen;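 also: robust z of the log signal after scaling to non-targeting control siRNA wells of the plate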
Details: RAW264.7 macrophages, IL-1a HTRF, actives lie on both sides, screened at 100 nM (by protocol), cells primed 5 h with Pam3CSK4 first
Procedure, shortened: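 Read-out: IL-1a HTRF on supernatant, divided by plate negative-control median ×100, log-transformed and converted to robust z-score. Cells were RAW264.7 given 100 nM siRNA, Pam3CSK4-primed 5 hours, then LipidA-transfected 24 hour.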
For GGGAAGCUGACAAUGGAACTT against Nmb, the z-score was inactive: 0.623. For CGGCGGUUUAAUGAAAAUATT against Cbfa2t2, the z-score was active: -2.58. With GCUGCUUCUAAACUUUGUATT against Dleu7 the z-score was inactive: 0.561. For GGUGUCCAUGAAAGAGCUCTT against Dlk1, the z-score was inactive: 0.0807. In the case of GGAUGUCAACAUUCGAGAUTT against Tmem231, the z-score is reported as inactive: 0.993. In the case of GCUAACUGCCUUGGGAAGATT against Lyl1, the z-score is reported as active: 2.57. With GGCUGACACAAGAUGGCUGTT against Ebpl the z-score was active: 2.41. In the case of GCACCAGGCCAAAUGAAGUTT against Srsf12, the z-score is reported as inactive: -1.45. With GGGCCACAAAGAAAUCAUATT against Wdr92 the z-score was inactive: 1.4. With GGCGGUUUCAAAAGCUUCCTT against Dusp2 the z-score was inactive: -0.472. In the case of GGCUAAGAGCCACCUAGAGTT against Ccdc124, the z-score is reported as inactive: -1.36. With CCGAGAGGUUUAAGGUCUCTT against Nsg1 the z-score was inactive: 1.18. For GGAGAGCUGUGUUUGUAACTT against Mllt1, the z-score was inactive: 0.378. With GGAUUACGGUCACUGCCAUTT against Gabrr2 the z-score was inactive: 1.01. With GCUCCCAGAUGUGAAACAATT against Taf7l the z-score was inactive: 0.224. For GGCUUAUGAUUUCUGAAAATT against Malt1, the z-score was inactive: -0.119. In the case of GCACGAAUCCUUGGAGAAATT against Batf2, the z-score is reported as inactive: -0.254. For GGAGGUUACAAUCCAUGAGTT against Anapc1, the z-score was inactive: -0.951. In the case of GGUCUUCUCAAUAGCGAGGTT against Plce1, the z-score is reported as inactive: -0.293. For GCUAUGAUCAUAGUACGAUTT against Adam25, the z-score was inactive: 0.25. For GGACUUCACAAUCUCUUUCTT against Hck, the z-score was inactive: -0.11. For GGAUGAUCAUUCUAGCUGUTT against Hormad1, the z-score was inactive: 0.836. In the case of CCUGGUGCUUCGUAAUUACTT against Cyp11a1, the z-score is reported as inactive: -1.03. In the case of GGGAUUCAGAGAUCAUGCATT against Serf1, the z-score is reported as inactive: -0.504. For CCUGGAGAGUGAUACGUUCTT against Serpina1f, the z-score was inactive: -0.228. In the case of GGACUUUCUGGACUCCCGATT against Wnt10a, the z-score is reported as inactive: -0.368. With GGAAUUAAAGAGGAACUCCTT against Adamts20 the z-score was inactive: 0.172. In the case of GGCCUUUACAUGUCCCAGCTT against BC002059, the z-score is reported as inactive: 0.456. For GGAAGAACUUUAAAAAUGCTT against Cd99l2, the z-score was inactive: 1.37. In the case of GGGUGUGCAUCUUGUUUUCTT against Olfr1312, the z-score is reported as inactive: -1.05.
